{
  "sequences": {"note": "Chains of the proteins cited; added tags and fusions are not shown. Residues count along the entry.", "UniProt P02545, residues 1-646": "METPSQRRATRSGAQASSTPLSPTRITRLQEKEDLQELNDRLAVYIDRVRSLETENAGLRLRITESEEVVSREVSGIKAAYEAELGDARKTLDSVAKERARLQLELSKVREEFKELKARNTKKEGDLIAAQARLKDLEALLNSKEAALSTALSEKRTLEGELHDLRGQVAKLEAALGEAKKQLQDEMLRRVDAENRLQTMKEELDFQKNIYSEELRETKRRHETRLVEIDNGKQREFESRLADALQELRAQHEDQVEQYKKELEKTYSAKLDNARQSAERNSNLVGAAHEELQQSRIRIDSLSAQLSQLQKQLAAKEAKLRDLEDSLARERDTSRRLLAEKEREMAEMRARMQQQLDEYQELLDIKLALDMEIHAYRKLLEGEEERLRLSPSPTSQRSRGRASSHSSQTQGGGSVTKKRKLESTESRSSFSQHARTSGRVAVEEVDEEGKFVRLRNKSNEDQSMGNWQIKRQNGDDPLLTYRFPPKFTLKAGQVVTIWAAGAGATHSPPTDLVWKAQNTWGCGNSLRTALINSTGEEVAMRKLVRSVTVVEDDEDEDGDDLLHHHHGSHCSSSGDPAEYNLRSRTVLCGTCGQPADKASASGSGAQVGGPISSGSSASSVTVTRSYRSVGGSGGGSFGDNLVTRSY"},
  "source": "paper PMC3967805",
  "molecular_target": "T1, CHMP4B (human (endogenous in HeLa)) (UniProt Q9H444)",
  "T1 sequence": "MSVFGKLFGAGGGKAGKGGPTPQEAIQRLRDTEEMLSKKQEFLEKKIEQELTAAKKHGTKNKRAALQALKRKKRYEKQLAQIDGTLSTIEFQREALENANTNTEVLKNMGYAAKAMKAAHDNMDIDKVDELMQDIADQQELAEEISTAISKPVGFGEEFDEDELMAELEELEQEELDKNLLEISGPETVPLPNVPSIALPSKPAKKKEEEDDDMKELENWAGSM",
  "experiment": "co-IP; HeLa lysate (20 mM HEPES pH 7.2, 2 mM MgCl2, 100 mM NaCl, 0.1 mM EDTA, 0.1% Triton X-100) mixed 1 h at 4°C with Protein A beads coupled to rabbit anti-CHMP4B antibody (rabbit IgG as control); blot with anti-H2B, anti-Lamin A and anti-CHMP4B",
  "note": "These are yes or no findings as the source states them, for the method shown. In cells and extracts the contact can be indirect. Some binding calls cover weakened binding; strength is not graded here.",
  "data": [
    {"substance": "Lamin A (from UniProt P02545 1-646)", "values": [
      {"measurement": "binding", "value": "binds"}
    ]}
  ]
}
